Measurements taken from PMC11755246.
These are yes or no findings as the source states them, for the method shown. In cells and extracts the contact can be indirect. Some entries that bind do so weakly or less than the wild type.

The chains behind the UniProt entries cited, without tags or fusion partners.
UniProt Q86U44: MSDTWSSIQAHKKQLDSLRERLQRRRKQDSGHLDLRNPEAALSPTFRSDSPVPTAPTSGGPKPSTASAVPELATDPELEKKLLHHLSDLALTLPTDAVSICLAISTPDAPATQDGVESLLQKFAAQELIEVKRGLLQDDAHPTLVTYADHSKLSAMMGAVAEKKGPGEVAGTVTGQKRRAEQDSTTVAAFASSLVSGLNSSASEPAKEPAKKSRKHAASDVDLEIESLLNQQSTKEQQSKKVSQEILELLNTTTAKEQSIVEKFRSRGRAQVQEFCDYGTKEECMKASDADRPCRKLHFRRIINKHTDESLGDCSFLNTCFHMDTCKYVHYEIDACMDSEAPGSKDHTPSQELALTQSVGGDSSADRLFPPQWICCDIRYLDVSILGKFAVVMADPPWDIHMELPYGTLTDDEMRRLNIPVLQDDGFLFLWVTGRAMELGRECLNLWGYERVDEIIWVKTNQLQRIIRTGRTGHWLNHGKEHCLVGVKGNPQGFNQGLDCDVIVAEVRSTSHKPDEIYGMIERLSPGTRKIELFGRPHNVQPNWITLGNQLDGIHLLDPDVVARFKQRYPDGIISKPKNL

Target: T1, PIWIL4 (human (endogenous in HMEC-1)) (UniProt Q7Z3Z4)
T1 sequence: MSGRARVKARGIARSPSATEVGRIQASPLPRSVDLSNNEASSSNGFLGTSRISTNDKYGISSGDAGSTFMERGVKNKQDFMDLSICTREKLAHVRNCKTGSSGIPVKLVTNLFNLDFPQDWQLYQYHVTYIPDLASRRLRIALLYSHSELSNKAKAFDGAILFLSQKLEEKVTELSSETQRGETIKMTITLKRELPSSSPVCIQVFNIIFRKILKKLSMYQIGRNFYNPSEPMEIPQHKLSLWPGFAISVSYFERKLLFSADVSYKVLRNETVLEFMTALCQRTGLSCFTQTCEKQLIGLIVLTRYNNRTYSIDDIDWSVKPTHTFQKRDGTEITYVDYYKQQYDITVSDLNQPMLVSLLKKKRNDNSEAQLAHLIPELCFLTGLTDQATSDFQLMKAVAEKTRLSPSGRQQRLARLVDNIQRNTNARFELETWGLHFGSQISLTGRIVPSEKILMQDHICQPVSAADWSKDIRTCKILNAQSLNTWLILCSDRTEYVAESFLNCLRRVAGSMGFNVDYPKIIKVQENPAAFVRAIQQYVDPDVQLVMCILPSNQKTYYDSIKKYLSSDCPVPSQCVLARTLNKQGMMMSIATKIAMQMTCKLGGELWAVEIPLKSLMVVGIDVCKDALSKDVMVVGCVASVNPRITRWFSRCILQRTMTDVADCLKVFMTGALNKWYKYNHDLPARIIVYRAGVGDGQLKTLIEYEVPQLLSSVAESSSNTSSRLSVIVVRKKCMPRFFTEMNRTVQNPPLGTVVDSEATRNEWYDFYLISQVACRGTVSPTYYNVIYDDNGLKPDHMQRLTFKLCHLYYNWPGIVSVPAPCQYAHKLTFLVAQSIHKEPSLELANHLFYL
Test: co-IP; lysates of HMEC-1 cells treated with conditioned medium from MDA-MB-231 cells (also from MDA-MB-231 cells with piR-31115 knockdown: binding diminished); immunoprecipitation with anti-PIWIL4 antibody on Protein A+G magnetic beads, western blot; IgG as negative control

- binding: binds
Substance: METTL3 (from UniProt Q86U44 1-580)
